PubChem BioAssay AID1508588, Peter MacCallum Cancer Centre | 2020

Test: 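Which gene losses make BRAF-mutant melanoma cells more responsive to vemurafenib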 (primary screen)
Cells: human WM266.4 melanoma cells (BRAF V600 mutant)
Knock-down reagent: siRNA pool against human genes, 40 nM
Time to read-out: 96 h from transfection to read-out
Treatment: vemurafenib 300 nM (about IC25), added 48 h after transfection, for 48 h; comparison arm got DMSO vehicle only
Measurement: 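Cell gain (DAPI nuclei at end minus before drug, mean of two replicates) and medium lactate by absorbance per cell, both as ratio to non-targeting siRNA, also grouped into fold-change classes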
Scale: cell gain with vemurafenib: higher = more cell gain than with non-targeting siRNA; lactate per cell with vemurafenib: higher = more lactate made per cell
Hit rule: 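Enhancement is called by pairing each knock-down's vehicle-arm and drug-arm fold-change classes for viability or glycolysis; which class combinations qualify is not given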
Meaning of the calls: active = enhances vemurafenib effect; inactive = no enhancement seen
The deposit covers about 18,000 reagents; shown is an unselected part. Of all reagents, 790 (4.4%) got an active call. 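Calls rest on a combination of fold-change classes in drug and vehicle arms, not all shown here.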 The numbers tell different reagents against one gene apart.

For WRAP53, how do the results read?
cell gain with vemurafenib: 0.76; lactate per cell with vemurafenib: 0.99; Outcome: inactive

What did the screen give for SRARP?
cell gain with vemurafenib: 0.63; lactate per cell with vemurafenib: 1.1; Outcome: inactive

For ITGA8, what does the deposit list?
cell gain with vemurafenib: 1.04; lactate per cell with vemurafenib: 1.1; Outcome: inactive

For P3H2, how do the results read?
cell gain with vemurafenib: 0.41; lactate per cell with vemurafenib: 0.7; Outcome: active

Which result is listed for SEPTIN5?
cell gain with vemurafenib: 0.68; lactate per cell with vemurafenib: 0.94; Outcome: inactive

For KCNMB1, what does the deposit list?
cell gain with vemurafenib: 0.8; lactate per cell with vemurafenib: 0.52; Outcome: inactive

For DRC10, what does the deposit list?
cell gain with vemurafenib: 0.16; lactate per cell with vemurafenib: 1.49; Outcome: inactive

With SZRD1, what does the deposit list?
cell gain with vemurafenib: 0.37; lactate per cell with vemurafenib: 1.27; Outcome: inactive

For CD2, how do the results read?
cell gain with vemurafenib: 0.85; lactate per cell with vemurafenib: 1.41; Outcome: inactive

For ZNF566, what was measured?
cell gain with vemurafenib: 0.92; lactate per cell with vemurafenib: 0.76; Outcome: inactive

Which result is listed for TEX44?
cell gain with vemurafenib: 0.06; lactate per cell with vemurafenib: 0.74; Outcome: inactive

With WNT7A, how do the results read?
cell gain with vemurafenib: 1.04; lactate per cell with vemurafenib: 1.15; Outcome: inactive

With ARL8A, what was measured?
cell gain with vemurafenib: 0.33; lactate per cell with vemurafenib: 0.78; Outcome: inactive

For PSG1, how do the results read?
cell gain with vemurafenib: 0.95; lactate per cell with vemurafenib: 0.82; Outcome: inactive

For ATP6V0B, how do the results read?
cell gain with vemurafenib: 0.42; lactate per cell with vemurafenib: 1.05; Outcome: inactive

With ITIH5, how do the results read?
cell gain with vemurafenib: 0.87; lactate per cell with vemurafenib: 0.48; Outcome: inactive

With SLC35D3, what does the deposit list?
cell gain with vemurafenib: 0.33; lactate per cell with vemurafenib: 1.15; Outcome: inactive

What did the screen give for ARRDC5?
cell gain with vemurafenib: 1.11; lactate per cell with vemurafenib: 0.72; Outcome: inactive

How did the screen score GK5?
cell gain with vemurafenib: 0.35; lactate per cell with vemurafenib: 0.12; Outcome: inactive

With PSMD5, what was measured?
cell gain with vemurafenib: 0.81; lactate per cell with vemurafenib: 0.79; Outcome: inactive

Entries above with an active call (1):
P3H2: cell gain with vemurafenib = 0.41; lactate per cell with vemurafenib = 0.7; Outcome = active

Continued:
For MLC1, what was measured?
cell gain with vemurafenib: 0.4; lactate per cell with vemurafenib: 0.64; Outcome: inactive

What did the screen give for MTMR1?
cell gain with vemurafenib: 0.86; lactate per cell with vemurafenib: 1.06; Outcome: inactive

With SRXN1, what does the deposit list?
cell gain with vemurafenib: 0.41; lactate per cell with vemurafenib: 1.27; Outcome: inactive

For DDX53, how do the results read?
cell gain with vemurafenib: 1.04; lactate per cell with vemurafenib: 0.7; Outcome: inactive

With HDAC7, what does the deposit list?
cell gain with vemurafenib: 0.78; lactate per cell with vemurafenib: 0.76; Outcome: inactive

Which result is listed for HBB?
cell gain with vemurafenib: 0.41; lactate per cell with vemurafenib: 0.82; Outcome: inactive

For PLEKHM3, what was measured?
cell gain with vemurafenib: 0.54; lactate per cell with vemurafenib: 0.64; Outcome: active

With CCNA2, what does the deposit list?
cell gain with vemurafenib: 0.04; lactate per cell with vemurafenib: 1.15; Outcome: inactive

For TIMM23B, what does the deposit list?
cell gain with vemurafenib: -0.08; lactate per cell with vemurafenib: 1.53; Outcome: inactive

For OR1C1, what was measured?
cell gain with vemurafenib: 0.29; lactate per cell with vemurafenib: 1.25; Outcome: inactive

For GLS, how do the results read?
cell gain with vemurafenib: 0.46; lactate per cell with vemurafenib: 1.78; Outcome: inactive

How did the screen score PKIA?
cell gain with vemurafenib: 0.79; lactate per cell with vemurafenib: 1.14; Outcome: inactive

For ZKSCAN7, what was measured?
cell gain with vemurafenib: 0.51; lactate per cell with vemurafenib: 0.7; Outcome: inactive

How did the screen score MRPS12?
cell gain with vemurafenib: 0.88; lactate per cell with vemurafenib: 1.24; Outcome: inactive

Which result is listed for BTBD6?
cell gain with vemurafenib: 0.57; lactate per cell with vemurafenib: 0.54; Outcome: inactive

Which result is listed for THAP2?
cell gain with vemurafenib: 0.76; lactate per cell with vemurafenib: 0.68; Outcome: active

For MYBPC1, how do the results read?
cell gain with vemurafenib: 0.4; lactate per cell with vemurafenib: 0.82; Outcome: inactive

With DENND1B #1, what does the deposit list?
cell gain with vemurafenib: 0.65; lactate per cell with vemurafenib: 1.25; Outcome: inactive

For DENND1B #2, what does the deposit list?
cell gain with vemurafenib: 0.41; lactate per cell with vemurafenib: 0.55; Outcome: inactive

What is on record for ELAVL1?
cell gain with vemurafenib: 0.45; lactate per cell with vemurafenib: 1.41; Outcome: inactive
